{
  "source": "patent US20250032525A1",
  "about": "(priority 2021, published 2025)",
  "key": {"MCF7": {"tested_on": "MCF7", "experiment": "In vitro cytotoxicity (PrestoBlue)", "details": "Homo sapiens"}, "MDA-MB-231": {"tested_on": "MDA-MB-231", "experiment": "In vitro cytotoxicity (PrestoBlue)", "details": "Homo sapiens"}},
  "data": [
    {"compound": "COc1cccc2c1C(=O)c1c(O)c3c(c(O)c1C2=O)C[C@@](O)(C(=O)CO)C[C@@H]3O[C@H]1C[C@H](N)[C@H](O)[C@H](C)O1", "note": "[DOX, doxorubicin]", "values": [
      {"measurement": "IC50", "setting": "MCF7", "value": 130, "unit": "nM"},
      {"measurement": "IC50", "setting": "MDA-MB-231", "value": 10, "unit": "nM"}
    ]}
  ]
}
